Laboratory results as given in article PMC4936714.
Results are given in words; binding and its absence hold for the method and conditions named. Binding seen in cells or lysates may run through a third protein. Some results given as binding are weak or reduced against the parent protein; the word gives no strength.

Sequences of proteins named here, by UniProt entry; tags and fusion partners are left off. A change or cut given only in a name is not applied to a line headed by its entry. Residues count along the entry.
UniProt Q16740: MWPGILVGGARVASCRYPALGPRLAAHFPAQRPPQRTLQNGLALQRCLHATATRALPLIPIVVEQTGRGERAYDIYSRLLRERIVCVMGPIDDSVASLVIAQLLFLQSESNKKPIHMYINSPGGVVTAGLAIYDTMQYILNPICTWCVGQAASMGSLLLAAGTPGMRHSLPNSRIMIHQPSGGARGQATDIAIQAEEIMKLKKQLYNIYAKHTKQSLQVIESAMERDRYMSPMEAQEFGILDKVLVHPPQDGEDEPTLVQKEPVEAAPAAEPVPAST
UniProt O76031, residues 57-633: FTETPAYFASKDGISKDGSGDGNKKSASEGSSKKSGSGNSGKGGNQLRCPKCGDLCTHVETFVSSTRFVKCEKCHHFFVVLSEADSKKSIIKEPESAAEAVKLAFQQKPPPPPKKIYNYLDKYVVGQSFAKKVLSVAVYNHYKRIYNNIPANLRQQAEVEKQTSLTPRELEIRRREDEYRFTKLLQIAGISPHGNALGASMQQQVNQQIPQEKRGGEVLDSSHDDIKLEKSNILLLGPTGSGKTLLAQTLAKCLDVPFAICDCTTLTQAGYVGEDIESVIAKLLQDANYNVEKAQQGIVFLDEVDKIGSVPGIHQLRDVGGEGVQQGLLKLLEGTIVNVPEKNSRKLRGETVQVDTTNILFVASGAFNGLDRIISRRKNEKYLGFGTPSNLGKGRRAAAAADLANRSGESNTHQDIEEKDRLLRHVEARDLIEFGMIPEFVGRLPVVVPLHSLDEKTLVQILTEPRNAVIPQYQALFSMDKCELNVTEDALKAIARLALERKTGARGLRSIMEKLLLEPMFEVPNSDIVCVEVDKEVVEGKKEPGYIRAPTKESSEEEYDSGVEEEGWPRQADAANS

Columns and labels:
Assay in all cases: co-IP; mitochondrial extracts from PC3 cells immunoprecipitated with antibodies to survivin, ClpP or ClpX, or non-binding IgG; western blotting
[1] = target: ClpP, AAA+ peptidase subunit of the ClpXP complex (human (endogenous in PC3)) (UniProt Q16740)
[2] = target: survivin (human (endogenous in PC3)) (UniProt O15392)
[3] = target: ClpX, unfoldase subunit of the ClpXP complex (human (endogenous in PC3)) (UniProt O76031)

Molecule | binding [1] | binding [2] | binding [3]
survivin (from UniProt O15392 1-142) | binds |  | 
ClpP, AAA+ peptidase subunit of the ClpXP complex (from UniProt Q16740 57-277) (enzyme) |  | binds | 
TNFR-associated molecule-1 (TRAP-1) (protein, UniProt Q12931 60-704) STQTAEDKEEPLHSIISSTESVQGSTSKHEFQAETKKLLDIVARSLYSEKEVFIRELISNASDALEKLRHKLVSDGQALPEMEIHLQTNAEKGTITIQDTGIGMTQEELVSNLGTIARSGSKAFLDALQNQAEASSKIIGQFGVGFYSAFMVADRVEVYSRSAAPGSLGYQWLSDGSGVFEIAEASGVRTGTKIIIHLKSDCKEFSSEARVRDVVTKYSNFVSFPLYLNGRRMNTLQAIWMMDPKDVREWQHEEFYRYVAQAHDKPRYTLHYKTDAPLNIRSIFYVPDMKPSMFDVSRELGSSVALYSRKVLIQTKATDILPKWLRFIRGVVDSEDIPLNLSRELLQESALIRKLRDVLQQRLIKFFIDQSKKDAEKYAKFFEDYGLFMREGIVTATEQEVKEDIAKLLRYESSALPSGQLTSLSEYASRMRAGTRNIYYLCAPNRHLAEHSPYYEAMKKKDTEVLFCFEQFDELTLLHLREFDKKKLISVETDIVVDHYKEEKFEDRSPAAECLSEKETEELMAWMRNVLGSRVTNVKVTLRLDTHPAMVTVLEMGAARHFLRMQQLAKTQEERAQLLQPTLEINPRHALIKKLNQLRASEPGLAQLLVDQIYENAMIAAGLVDDPRAMVGRLNELLVKALERH | binds | binds | 
succinate dehydrogenase B (SDHB), oxidative phosphorylation Complex II subunit (protein, UniProt P21912 29-280) AQTAAATAPRIKKFAIYRWDPDKAGDKPHMQTYEVDLNKCGPMVLDALIKIKNEVDSTLTFRRSCREGICGSCAMNINGGNTLACTRRIDTNLNKVSKIYPLPHMYVIKDLVPDLSNFYAQYKSIEPYLKKKDESQEGKQQYLQSIEEREKLDGLYECILCACCSTSCPSYWWNGDKYLGPAVLMQAYRWMIDSRDDFTEERLAKLQDPFSLYRCHTIMNCTRTCPKGLNPGKAIAEIKKMMATYKEKKASV | binds |  | binds
